Reference: the supplement of paper PMC10849652
The other results are listed elsewhere or left out.

Sequences of proteins named here, by UniProt entry; tags and fusion partners are left off. A change or cut given only in a name is not applied to a line headed by its entry.
UniProt Q13637: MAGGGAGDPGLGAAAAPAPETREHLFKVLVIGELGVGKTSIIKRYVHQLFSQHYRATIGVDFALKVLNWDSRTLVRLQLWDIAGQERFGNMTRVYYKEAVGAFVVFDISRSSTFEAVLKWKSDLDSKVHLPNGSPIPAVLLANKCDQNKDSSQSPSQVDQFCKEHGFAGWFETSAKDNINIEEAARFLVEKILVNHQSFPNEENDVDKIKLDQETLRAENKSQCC
UniProt P61224: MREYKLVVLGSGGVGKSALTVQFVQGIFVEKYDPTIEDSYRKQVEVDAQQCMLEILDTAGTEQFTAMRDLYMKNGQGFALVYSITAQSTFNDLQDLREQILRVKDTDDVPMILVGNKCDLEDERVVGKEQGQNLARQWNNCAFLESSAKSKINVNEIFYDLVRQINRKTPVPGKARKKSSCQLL
UniProt P11233: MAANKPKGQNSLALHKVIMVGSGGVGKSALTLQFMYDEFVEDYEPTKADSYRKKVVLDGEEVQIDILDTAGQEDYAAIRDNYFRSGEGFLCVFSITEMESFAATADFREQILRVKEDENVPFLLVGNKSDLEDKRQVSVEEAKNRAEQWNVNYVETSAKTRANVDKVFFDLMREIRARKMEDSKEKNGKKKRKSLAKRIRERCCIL
UniProt Q92930: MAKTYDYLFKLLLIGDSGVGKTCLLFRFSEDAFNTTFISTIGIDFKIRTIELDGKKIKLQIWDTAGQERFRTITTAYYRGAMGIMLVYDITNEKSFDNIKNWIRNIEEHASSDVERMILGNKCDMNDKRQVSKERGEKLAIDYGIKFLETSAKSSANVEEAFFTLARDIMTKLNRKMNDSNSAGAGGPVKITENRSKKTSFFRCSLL
UniProt P61026: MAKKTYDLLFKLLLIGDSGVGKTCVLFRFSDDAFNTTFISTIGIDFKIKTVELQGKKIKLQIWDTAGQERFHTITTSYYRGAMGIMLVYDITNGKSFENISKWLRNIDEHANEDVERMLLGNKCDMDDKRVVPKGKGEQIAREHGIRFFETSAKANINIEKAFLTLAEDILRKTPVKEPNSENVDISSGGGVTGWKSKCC
UniProt Q6IQ22: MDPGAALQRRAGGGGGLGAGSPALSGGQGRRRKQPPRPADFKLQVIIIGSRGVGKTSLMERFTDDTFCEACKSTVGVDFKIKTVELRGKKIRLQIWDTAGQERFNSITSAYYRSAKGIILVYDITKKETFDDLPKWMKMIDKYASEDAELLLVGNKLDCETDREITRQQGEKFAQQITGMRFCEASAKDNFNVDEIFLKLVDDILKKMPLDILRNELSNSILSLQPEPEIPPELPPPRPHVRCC
UniProt Q15286: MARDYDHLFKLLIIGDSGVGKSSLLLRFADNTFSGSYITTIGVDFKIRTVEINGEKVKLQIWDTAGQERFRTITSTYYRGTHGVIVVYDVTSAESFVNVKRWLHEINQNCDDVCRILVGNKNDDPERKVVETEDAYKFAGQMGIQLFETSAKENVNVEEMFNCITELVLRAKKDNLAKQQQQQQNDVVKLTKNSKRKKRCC
UniProt Q15311: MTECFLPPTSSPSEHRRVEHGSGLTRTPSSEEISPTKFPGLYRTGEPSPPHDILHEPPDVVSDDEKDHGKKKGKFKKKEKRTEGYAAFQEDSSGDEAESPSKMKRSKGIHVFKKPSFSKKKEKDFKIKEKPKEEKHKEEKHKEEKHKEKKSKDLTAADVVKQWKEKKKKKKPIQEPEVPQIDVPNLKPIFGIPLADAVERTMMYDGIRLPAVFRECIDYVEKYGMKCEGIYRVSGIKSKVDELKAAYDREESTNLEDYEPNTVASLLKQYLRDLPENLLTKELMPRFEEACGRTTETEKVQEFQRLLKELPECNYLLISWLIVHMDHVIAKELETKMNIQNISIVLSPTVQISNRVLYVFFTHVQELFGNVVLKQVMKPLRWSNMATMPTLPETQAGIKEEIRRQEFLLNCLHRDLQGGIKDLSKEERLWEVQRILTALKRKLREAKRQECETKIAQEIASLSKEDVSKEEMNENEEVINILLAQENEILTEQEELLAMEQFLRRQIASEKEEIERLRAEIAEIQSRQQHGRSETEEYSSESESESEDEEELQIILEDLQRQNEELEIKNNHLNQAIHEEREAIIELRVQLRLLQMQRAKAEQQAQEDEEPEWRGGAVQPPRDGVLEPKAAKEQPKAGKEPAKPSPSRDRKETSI
UniProt Q9NP72: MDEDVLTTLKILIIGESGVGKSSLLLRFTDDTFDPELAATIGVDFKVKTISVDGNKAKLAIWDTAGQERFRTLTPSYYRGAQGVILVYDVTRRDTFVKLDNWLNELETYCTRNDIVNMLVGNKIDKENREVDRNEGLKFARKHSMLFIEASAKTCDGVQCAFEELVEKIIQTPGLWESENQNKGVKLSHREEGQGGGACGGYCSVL
UniProt O43502: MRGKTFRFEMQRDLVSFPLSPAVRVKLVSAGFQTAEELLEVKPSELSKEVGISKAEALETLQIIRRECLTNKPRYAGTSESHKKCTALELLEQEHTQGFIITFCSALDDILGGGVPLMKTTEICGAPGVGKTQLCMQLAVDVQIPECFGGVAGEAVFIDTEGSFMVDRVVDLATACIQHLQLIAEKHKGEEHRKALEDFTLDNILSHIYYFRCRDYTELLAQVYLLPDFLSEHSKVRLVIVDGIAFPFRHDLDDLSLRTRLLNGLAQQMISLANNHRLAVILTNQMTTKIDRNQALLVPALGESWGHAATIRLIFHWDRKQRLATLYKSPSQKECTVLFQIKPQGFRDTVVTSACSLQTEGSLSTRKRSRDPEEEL
UniProt P61020: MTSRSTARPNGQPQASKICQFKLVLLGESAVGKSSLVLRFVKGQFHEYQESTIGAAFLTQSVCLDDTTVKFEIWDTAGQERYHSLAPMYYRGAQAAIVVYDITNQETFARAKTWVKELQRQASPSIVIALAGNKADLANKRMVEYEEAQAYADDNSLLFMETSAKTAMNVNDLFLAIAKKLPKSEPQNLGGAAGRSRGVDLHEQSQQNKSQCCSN
UniProt Q9UI14, whole entry, looked up: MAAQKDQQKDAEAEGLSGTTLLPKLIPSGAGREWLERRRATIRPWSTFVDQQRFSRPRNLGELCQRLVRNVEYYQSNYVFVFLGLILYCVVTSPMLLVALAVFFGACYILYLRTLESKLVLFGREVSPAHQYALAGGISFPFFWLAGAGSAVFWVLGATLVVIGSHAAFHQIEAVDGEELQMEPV
UniProt P47736: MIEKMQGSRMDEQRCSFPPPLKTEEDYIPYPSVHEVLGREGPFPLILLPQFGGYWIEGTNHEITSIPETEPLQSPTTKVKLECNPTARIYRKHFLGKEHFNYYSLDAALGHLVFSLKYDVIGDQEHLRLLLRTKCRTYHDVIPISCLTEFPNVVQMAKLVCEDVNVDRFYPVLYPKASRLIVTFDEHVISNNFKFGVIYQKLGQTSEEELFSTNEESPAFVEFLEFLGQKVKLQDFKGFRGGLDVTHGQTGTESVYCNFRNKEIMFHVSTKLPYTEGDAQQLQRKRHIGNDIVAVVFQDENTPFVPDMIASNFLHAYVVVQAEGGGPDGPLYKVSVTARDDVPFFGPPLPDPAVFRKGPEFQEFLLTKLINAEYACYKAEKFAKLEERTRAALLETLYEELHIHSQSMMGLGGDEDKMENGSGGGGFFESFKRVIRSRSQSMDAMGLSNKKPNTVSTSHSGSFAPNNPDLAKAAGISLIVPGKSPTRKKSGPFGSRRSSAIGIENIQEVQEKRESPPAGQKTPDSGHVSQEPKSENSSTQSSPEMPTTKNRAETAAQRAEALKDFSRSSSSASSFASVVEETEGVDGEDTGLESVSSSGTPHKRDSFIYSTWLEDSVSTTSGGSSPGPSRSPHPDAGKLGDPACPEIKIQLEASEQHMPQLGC
UniProt P62834: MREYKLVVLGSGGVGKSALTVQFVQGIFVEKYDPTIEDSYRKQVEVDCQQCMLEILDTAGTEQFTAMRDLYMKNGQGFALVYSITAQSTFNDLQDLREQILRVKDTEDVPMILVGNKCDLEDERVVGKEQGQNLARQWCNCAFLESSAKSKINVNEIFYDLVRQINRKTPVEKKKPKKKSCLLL
UniProt Q92696: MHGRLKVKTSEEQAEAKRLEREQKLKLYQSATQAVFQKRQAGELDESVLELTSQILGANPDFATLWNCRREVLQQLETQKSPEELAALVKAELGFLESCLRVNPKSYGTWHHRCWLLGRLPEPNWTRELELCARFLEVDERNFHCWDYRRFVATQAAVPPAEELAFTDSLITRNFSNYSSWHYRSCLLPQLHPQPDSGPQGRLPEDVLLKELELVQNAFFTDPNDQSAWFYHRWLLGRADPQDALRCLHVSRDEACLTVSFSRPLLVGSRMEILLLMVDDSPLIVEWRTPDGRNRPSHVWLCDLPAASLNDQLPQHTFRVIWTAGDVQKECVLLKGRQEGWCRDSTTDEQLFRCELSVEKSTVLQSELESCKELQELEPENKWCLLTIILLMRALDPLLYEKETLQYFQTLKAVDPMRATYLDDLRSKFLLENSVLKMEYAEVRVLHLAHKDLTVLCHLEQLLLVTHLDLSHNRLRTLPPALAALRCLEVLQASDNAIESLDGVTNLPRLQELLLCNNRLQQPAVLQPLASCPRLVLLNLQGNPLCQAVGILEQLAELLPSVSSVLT
UniProt P61019: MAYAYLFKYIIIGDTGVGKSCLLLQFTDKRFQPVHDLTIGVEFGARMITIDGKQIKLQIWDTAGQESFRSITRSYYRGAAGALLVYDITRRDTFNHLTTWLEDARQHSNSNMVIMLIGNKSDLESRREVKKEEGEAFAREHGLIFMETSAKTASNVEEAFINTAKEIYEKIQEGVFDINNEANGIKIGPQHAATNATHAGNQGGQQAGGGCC
UniProt Q9BXR0: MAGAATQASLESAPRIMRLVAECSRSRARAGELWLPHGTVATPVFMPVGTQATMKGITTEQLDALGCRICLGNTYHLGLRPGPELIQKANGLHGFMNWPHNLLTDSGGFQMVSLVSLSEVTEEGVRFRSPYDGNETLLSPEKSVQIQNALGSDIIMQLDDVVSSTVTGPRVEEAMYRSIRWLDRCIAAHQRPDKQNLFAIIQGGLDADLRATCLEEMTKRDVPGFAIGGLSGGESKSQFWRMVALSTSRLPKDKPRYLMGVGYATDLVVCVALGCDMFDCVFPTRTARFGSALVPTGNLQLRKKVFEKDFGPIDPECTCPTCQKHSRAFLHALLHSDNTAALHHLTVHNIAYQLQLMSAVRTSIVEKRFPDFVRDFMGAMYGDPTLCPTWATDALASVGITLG
UniProt P20336: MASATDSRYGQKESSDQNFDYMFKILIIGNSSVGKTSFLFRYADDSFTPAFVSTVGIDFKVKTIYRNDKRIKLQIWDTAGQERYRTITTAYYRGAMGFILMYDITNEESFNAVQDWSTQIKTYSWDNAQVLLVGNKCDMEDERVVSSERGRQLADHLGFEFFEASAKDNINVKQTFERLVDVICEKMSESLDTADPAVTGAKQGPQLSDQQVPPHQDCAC
UniProt Q9H974: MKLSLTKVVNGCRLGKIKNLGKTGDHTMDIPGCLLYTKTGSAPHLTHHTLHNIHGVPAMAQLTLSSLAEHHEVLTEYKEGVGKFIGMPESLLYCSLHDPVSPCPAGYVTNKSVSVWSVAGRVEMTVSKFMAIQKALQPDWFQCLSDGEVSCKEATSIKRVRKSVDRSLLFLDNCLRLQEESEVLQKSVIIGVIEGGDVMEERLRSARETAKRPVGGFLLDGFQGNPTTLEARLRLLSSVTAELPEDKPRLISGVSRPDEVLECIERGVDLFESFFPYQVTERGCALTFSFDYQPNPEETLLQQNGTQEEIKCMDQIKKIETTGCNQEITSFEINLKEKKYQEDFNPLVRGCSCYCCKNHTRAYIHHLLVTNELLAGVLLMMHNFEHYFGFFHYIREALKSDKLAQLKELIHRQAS

Experiments:
Experiment in all cases: log2 fold change, soluble protein after heating vs DMSO (PISA); higher = thermal stabilisation; K562 lysate, 10 uM; active = over 0.2 and 3.5 SD of the protein, either way, in both replicates (recomputed)
[1] = compound: Cc1cn(-c2cc(NC(=O)c3ccc(C)c(Nc4nccc(-c5cccnc5)n4)c3)cc(C(F)(F)F)c2)cn1 [nilotinib]
How it was run: (§1)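 Log-two fold change in thermal stability relative to solvent controls is reported from duplicates. For each sample, crude K562 extract from dounce-homogenised pellets in PBS pH 7.4 with 1 mM MgCl2, at 1 mg/mL protein, was treated with 10 μM compound for 30 min. Aliquots heated for 3 min across 48°C-58°C were pooled, brought to 0.5% NP-40 at 4°C and cleared at 21,000xg for 90 min. The supernatant was quantified by TMTpro 16plex LC-MS/MS with channel sums equalised.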

[2] = compound: Cc1nc(Nc2n[nH]c3c2CN(C(=O)N[C@H](CN(C)C)c2ccccc2)C3(C)C)c2sccc2n1
How it was run: as §1

[3] = compound: Cc1nc(Nc2ncc(C(=O)Nc3c(C)cccc3Cl)s2)cc(N2CCN(CCO)CC2)n1 [dasatinib]
How it was run: as §1

[4] = compound: Cc1ncc(-c2ccnc(Nc3ccc(S(C)(=O)=O)cc3)n2)n1C(C)C
How it was run: as §1

[5] = compound: Cn1cc(-c2ccc3c(c2)CCN3C(=O)Cc2cccc(C(F)(F)F)c2)c2c(N)ncnc21
How it was run: as §1

[6] = compound: Cn1cc(CNCC2CCN(c3ncc(C(=O)NO)cn3)CC2)c2ccccc21 [quisinostat]
How it was run: as §1

[7] = compound: Cn1cncc1[C@@](N)(c1ccc(Cl)cc1)c1ccc2c(c1)c(-c1cccc(Cl)c1)cc(=O)n2C [tipifarnib]
How it was run: as §1

[8] = compound: NC(=O)Nc1cc(-c2cccc(F)c2)sc1C(=O)N[C@H]1CCCNC1
How it was run: as §1

[9] = compound: NC(=O)c1cnc(N[C@@H]2CCCC[C@@H]2N)nc1Nc1cccc(-n2nccn2)c1
How it was run: as §1

[10] = compound: NC1(c2ccc(-c3nc4ccn5c(=O)[nH]nc5c4cc3-c3ccccc3)cc2)CCC1
How it was run: as §1

Measured: log2 fold change

RACGAP1 (UniProt Q9H0H5)
inactive: [1] 0.068 | [2] -0.08 | [3] -0.025 | [4] -0.015 | [5] 0.02 | [6] 0.015 | [7] 0.082 | [8] 0.004 | [9] 0.159 | [10] 0.034

R3HCC1L, A0A384DVK4
inactive: [1] 0.031 | [2] 0.043 | [3] 0.003 | [4] -0.012 | [5] 0 | [6] -0.03 | [7] -0.112 | [8] 0.046 | [9] 0.02 | [10] 0.029

RAB32 (UniProt Q13637)
inactive: [1] 0.021 | [2] -0.042 | [3] 0.04 | [4] 0.018 | [5] 0.043 | [6] -0.036 | [7] 0.064 | [8] -0.027 | [9] -0.023 | [10] -0.032

RAP1B (UniProt P61224)
inactive: [1] 0.032 | [2] 0 | [3] 0.045 | [4] 0.027 | [5] -0.002 | [6] -0.007 | [7] -0.034 | [8] -0.007 | [9] -0.029 | [10] -0.025

RAC1 isoform 2 (UniProt P63000)
inactive: [1] 0.001 | [2] 0.001 | [3] -0.012 | [4] -0.023 | [5] -0.014 | [6] 0.162 | [7] -0.002 | [8] -0.076 | [9] -0.028 | [10] 0.013

RALA (UniProt P11233)
inactive: [1] -0.04 | [2] -0.001 | [3] 0.017 | [4] -0.04 | [5] -0.018 | [6] 0.004 | [7] -0.041 | [8] 0.033 | [9] 0.038 | [10] -0.003

Two records drawn at random from the list so far:
R3HCC1L, A0A384DVK4
inactive: [1] 0.031 | [2] 0.043 | [3] 0.003 | [4] -0.012 | [5] 0 | [6] -0.03 | [7] -0.112 | [8] 0.046 | [9] 0.02 | [10] 0.029

RAB32 (UniProt Q13637)
inactive: [1] 0.021 | [2] -0.042 | [3] 0.04 | [4] 0.018 | [5] 0.043 | [6] -0.036 | [7] 0.064 | [8] -0.027 | [9] -0.023 | [10] -0.032

More results

RAB8B (UniProt Q92930)
inactive: [1] -0.136 | [2] -0.011 | [3] -0.038 | [4] -0.033 | [5] -0.096 | [6] -0.035 | [7] 0.075 | [8] 0.019 | [9] 0.099 | [10] 0.029

RALY (UniProt Q9UKM9)
inactive: [1] -0.026 | [2] 0.018 | [3] 0.032 | [4] 0.049 | [5] -0.004 | [6] -0.094 | [7] -0.019 | [8] 0.016 | [9] 0.013 | [10] -0.103

RAB10 (UniProt P61026)
inactive: [1] 0.034 | [2] -0.024 | [3] -0.006 | [4] -0.087 | [5] 0.003 | [6] 0.028 | [7] -0.044 | [8] -0.019 | [9] -0.049 | [10] -0.023

RAD18 (UniProt Q9NS91)
inactive: [1] -0.015 | [2] 0.005 | [3] -0.04 | [4] -0.002 | [5] 0 | [6] 0.009 | [7] -0.012 | [8] -0.01 | [9] 0.025 | [10] 0.031

RAC2 (UniProt P15153)
inactive: [1] -0.025 | [2] -0.076 | [3] -0.068 | [4] 0.015 | [5] -0.093 | [6] 0.021 | [7] 0 | [8] 0.001 | [9] 0.04 | [10] 0.017

RAB12 (UniProt Q6IQ22)
inactive: [1] -0.061 | [2] 0.015 | [3] 0.051 | [4] 0.04 | [5] 0.022 | [6] -0.077 | [7] -0.023 | [8] 0.049 | [9] -0.025 | [10] -0.036

RACK1 (UniProt P63244)
inactive: [1] -0.003 | [2] 0.003 | [3] -0.029 | [4] 0 | [5] 0.021 | [6] 0.071 | [7] 0.004 | [8] -0.03 | [9] -0.008 | [10] -0.007

RAB35 (UniProt Q15286)
inactive: [1] -0.043 | [2] 0.004 | [3] -0.024 | [4] 0 | [5] -0.082 | [6] -0.026 | [7] -0.013 | [8] -0.004 | [9] 0.003 | [10] 0.001

RAP1B (UniProt F5GZG1)
inactive: [1] 0.012 | [2] -0.066 | [3] 0.05 | [4] -0.253 | [5] 0.047 | [6] -0.011 | [7] -0.058 | [8] 0.087 | [9] -0.019 | [10] -0.029

RALBP1 (UniProt Q15311)
inactive: [1] -0.057 | [2] 0.051 | [3] -0.006 | [4] 0.012 | [5] 0 | [6] -0.087 | [7] -0.032 | [8] -0.017 | [9] -0.001 | [10] 0.008

RAB18 (UniProt Q9NP72)
inactive: [1] -0.052 | [2] 0.055 | [3] 0.052 | [4] -0.057 | [5] 0.054 | [6] 0.034 | [7] -0.075 | [8] -0.004 | [9] 0.057 | [10] 0.14

RABGAP1L isoform 5 (UniProt Q5R372)
inactive: [1] 0.005 | [2] 0 | [3] -0.064 | [4] 0.013 | [5] 0.067 | [6] -0.051 | [7] 0.03 | [8] -0.035 | [9] 0.055 | [10] 0.05

RAD51C (UniProt O43502)
inactive: [1] 0.013 | [2] 0.021 | [3] -0.014 | [4] 0.009 | [5] -0.019 | [6] 0.036 | [7] 0.03 | [8] 0.051 | [9] 0.042 | [10] -0.021

RABGAP1L isoform 3 (UniProt Q5R372)
inactive: [1] 0.005 | [2] 0.001 | [3] 0.024 | [4] 0.022 | [5] 0.022 | [6] -0.01 | [7] -0.026 | [8] 0 | [9] -0.011 | [10] -0.015

RAB5B (UniProt P61020)
inactive: [1] 0.045 | [2] -0.004 | [3] -0.038 | [4] 0.022 | [5] -0.008 | [6] -0.009 | [7] -0.075 | [8] 0.026 | [9] -0.003 | [10] -0.043

RABAC1 (UniProt Q9UI14)
inactive: [1] -0.018 | [2] 0.008 | [3] 0.049 | [4] 0.103 | [5] 0.026 | [6] -0.008 | [7] 0.074 | [8] -0.066 | [9] 0.056 | [10] 0.071

RAP1GAP isoform 4 (UniProt P47736)
inactive: [1] -0.002 | [2] -0.015 | [3] 0 | [4] 0.017 | [5] 0.028 | [6] -0.046 | [7] -0.013 | [8] 0.029 | [9] -0.021 | [10] -0.034

RAP1A (UniProt P62834)
inactive: [1] 0.024 | [2] 0.013 | [3] 0.016 | [4] -0.011 | [5] -0.005 | [6] 0.077 | [7] -0.021 | [8] -0.02 | [9] -0.012 | [10] -0.006

RABGGTA (UniProt Q92696)
inactive: [1] -0.019 | [2] 0.003 | [3] 0.072 | [4] 0.037 | [5] 0.011 | [6] -0.041 | [7] -0.017 | [8] 0.014 | [9] 0.006 | [10] -0.136

RAB2A (UniProt P61019)
inactive: [1] -0.002 | [2] 0.006 | [3] 0 | [4] -0.112 | [5] 0.005 | [6] 0.049 | [7] -0.045 | [8] -0.025 | [9] -0.003 | [10] 0.029

QTRT1 (UniProt Q9BXR0)
inactive: [1] 0.004 | [2] 0.024 | [3] -0.004 | [4] -0.005 | [5] -0.019 | [6] 0.02 | [7] 0.07 | [8] 0.007 | [9] 0.01 | [10] -0.01

RAB3A (UniProt P20336)
inactive: [1] 0.002 | [2] 0.029 | [3] -0.073 | [4] 0.008 | [5] 0.002 | [6] 0.142 | [7] 0.034 | [8] -0.071 | [9] -0.027 | [10] 0.019

QTRT2 isoform 4 (UniProt Q9H974)
inactive: [1] -0.001 | [2] -0.024 | [3] 0.005 | [4] -0.024 | [5] -0.051 | [6] -0.059 | [7] 0.022 | [8] 0.022 | [9] 0.004 | [10] 0.021

PXN isoform 3 (UniProt P49023)
inactive: [1] 0.037 | [2] 0.035 | [3] -0.026 | [4] 0.061 | [5] -0.065 | [6] -0.008 | [7] -0.01 | [8] -0.003 | [9] -0.029 | [10] -0.037
